In publication PMC10040874:
No constants are given. Whether binding was seen depends on the method and setting. Some entries that bind do so weakly or less than the wild type.

Experiments:
[1] = target: GPLGS-CBS-pair of D. melanogaster CNNM (D. melanogaster); test: crystal structure; complex mixed 2:1 (PRL:CBS-pair), purified on Superdex-200; sitting drop, 0.1 M Bis-tris propane pH 6.5, 17% PEG3350, 0.2 M NaI, 4 °C; 2.5 Å, P4(1)2(1)2; both purified
[2] = target: T1, human PRL1 (human), Q93096; test: AUC; sedimentation velocity, 20 °C, ∼50 μM protein, 20 mM Hepes pH 7.5, 100 mM NaCl, 5 mM TCEP (reducing conditions); absorbance at 280 nm, c(s) distribution; both purified; settings: remark: other sources report otherwise
T1 chain: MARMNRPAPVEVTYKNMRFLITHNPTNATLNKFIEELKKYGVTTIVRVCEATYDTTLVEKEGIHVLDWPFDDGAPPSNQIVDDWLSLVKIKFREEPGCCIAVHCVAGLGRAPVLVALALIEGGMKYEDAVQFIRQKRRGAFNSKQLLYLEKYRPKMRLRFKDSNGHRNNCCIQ

[3] = target: T2, human PRL1 in the presence of 1 mM H2O2 (disulfide form) (human), Q93096; test: AUC; sedimentation velocity, 20 °C, ∼50 μM protein, 20 mM Hepes pH 7.5, 100 mM NaCl, 1 mM H2O2 without TCEP; both purified; settings: remark: other sources report otherwise
T2 chain: T1 chain

B1: D. melanogaster PRL (res. 14–165) C104A (enzyme, UniProt O61722 14-165)
chain: PALIEYKGMKFLITDRPSDITINHYIMELKKNNVNTVVRVCEPSYNTDELETQGITVKDLAFEDGTFPPQQVVDEWFEVLKDKYQQNPEAAVAVHCVAGLGRAPVLVALALIELGLKYEAAVEMIRDKRRGAINAKQLSFLEKYKPKARLKH
[1]
  binding: binds

B2: human PRL1, Q93096 1-173 (enzyme)
chain: T1 chain
[2]
  binding: no binding (tested: ∼50 μM)

B3: human PRL1 in the presence of 1 mM H2O2 (disulfide form), Q93096 1-173 (enzyme)
chain: T1 chain
modifications: here or on the partner: disulfide of the catalytic cysteine (formed with 1 mM H2O2); disulfide of the catalytic cysteine (formed with 1 mM H2O2)
[3]
  binding: no binding (tested: ∼50 μM)
